The source of these data is publication PMC7819943, “Rice protein-binding microarrays: a tool to detect cis-acting elements near promoter regions in rice”.

Protein sequences, listed by entry. Tags and fused reporters are not part of them.
UniProt Q0JBA9, entry or part of it: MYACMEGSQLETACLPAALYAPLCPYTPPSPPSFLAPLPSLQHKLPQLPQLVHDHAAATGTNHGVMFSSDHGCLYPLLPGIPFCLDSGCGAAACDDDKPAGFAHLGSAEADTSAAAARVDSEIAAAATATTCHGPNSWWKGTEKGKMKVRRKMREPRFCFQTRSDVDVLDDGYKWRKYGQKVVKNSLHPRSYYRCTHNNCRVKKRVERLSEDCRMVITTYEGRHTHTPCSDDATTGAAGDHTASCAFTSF

Some of the results follow.

The target of this test is OsWRKY34 (Oryza sativa, UniProt Q0JBA9 1-250). Description: protein-binding microarray (RPBM); PBS, 2% BSA, 51.3 ng/ul salmon testes DNA, 50 uM zinc acetate, 200 nM TF, 25 C, 1 h; high values mean tight binding. The settings on record: protein: recombinant; tags: N-terminal polyhistidine and DsRed monomer fusion (pET32a); label: CyDye5-dUTP incorporated in the synthesized complementary strand; 3' TTTTT single-stranded linker to array surface; dsDNA, one strand shown. The gist of the method:
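Binding signal here means per-feature fluorescence intensity in arbitrary units. The values were read on an Axon 4000B scanner after a custom Agilent array, double-stranded by primer extension with Cy5-dUTP, was incubated with 200 nM protein at 25 °C for 1 h in PBS with 2% BSA, salmon testes DNA and 50 µM zinc acetate, then washed. The proteins were transcription factors with an N-terminal polyhistidine tag and DsRed, expressed in E. coli BL21-CodonPlus and purified on Ni–NTA.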
Consider “GTATTGTGAATACTCACCCTTGGTCTTATTAACCATTTTTCGGAGTCACCTAGTGCAG”, for which the binding signal is 8160 fluorescence intensity (a.u.).

As for “ATCCTGTACTTTTTGCTGATCTACATCCTCTTTCATGAACCGGAGTCACCTAGTGCAG”, the binding signal is 10400 fluorescence intensity (a.u.).

As for “GGTTTTCGGAGATGAGTGAGTCGTTATACCTGGTTTTTTTCGGAGTCACCTAGTGCAG”, the binding signal was 10900 fluorescence intensity (a.u.).

On to “TCTCCAGTCTCCACCACCGACTTCTTCGTTTGATCTCGGGCGGAGTCACCTAGTGCAG”, for which the binding signal is 8210 fluorescence intensity (a.u.).

Turning to “ATTCCAACTCACTCTCGTCTCCTCTTCTTCTTCTTCAACCCGGAGTCACCTAGTGCAG”, the binding signal was 9230 fluorescence intensity (a.u.).

As for “CTAATTCGTACCCCACAATATATTTTTGCGTGTGTAAATGCGGAGTCACCTAGTGCAG”, the binding signal was 9300 fluorescence intensity (a.u.).

Take “ATAACATGCATAGCCTGGTTCGTCCTTATTGTGGTTTTCCCGGAGTCACCTAGTGCAG”: the binding signal was 9780 fluorescence intensity (a.u.).

Turning to “CCGCCGCCGCCGCCGCCTCCACGCCGCCGTGCTGAGCCCACGGAGTCACCTAGTGCAG”, the binding signal is 8460 fluorescence intensity (a.u.).

On to “AACAATAAATATTTTTTAGGCCCACGTGTCAGCTACCTTTCGGAGTCACCTAGTGCAG”, for which the binding signal is 10700 fluorescence intensity (a.u.).

Consider “TCTCTTCAAATTATTCCTTTTGCACTATATTTCAACTTGACGGAGTCACCTAGTGCAG”, for which the binding signal is 10800 fluorescence intensity (a.u.).

For the sequence “ATCCATCACATCACGAAACCACTTCATGTACTCTTAACATCGGAGTCACCTAGTGCAG”, the binding signal was 8080 fluorescence intensity (a.u.).

Take “TAGCTCCATTGTTCGATCTCATCTCCCTTAGCTAGCTACTCGGAGTCACCTAGTGCAG”: the binding signal was 8130 fluorescence intensity (a.u.).

Consider “GGTTTTTTCGGTTTTCGGTTGTCAGTTCGGTTTCTGTTTTCGGAGTCACCTAGTGCAG”, for which the binding signal is 15400 fluorescence intensity (a.u.).

“TACCCGGCATTTATTTTCCTCACCCATTTTCTCCACTAAACGGAGTCACCTAGTGCAG”: the binding signal was 11000 fluorescence intensity (a.u.).

With “AAATTCTGTTCTTGCCTCTGACGAAGCTGTCCATATAGTACGGAGTCACCTAGTGCAG”, the binding signal is 8070 fluorescence intensity (a.u.).

For “CACCATTTGCACGCTTCCCAATTGCCTCGATGAGACAGAGCGGAGTCACCTAGTGCAG”, the binding signal was 8490 fluorescence intensity (a.u.).

“GAGGCCGTTGGAGTTGTCGTCCCTCGCTCGCTTGCATCAACGGAGTCACCTAGTGCAG”: the binding signal is 9670 fluorescence intensity (a.u.).

On to “AATGTAGTCGAGGGTGACTTGACTTGCTCAAGGCCTTCACCGGAGTCACCTAGTGCAG”, for which the binding signal is 8230 fluorescence intensity (a.u.).

Regarding “CACACACTCTCCGGTTTTTTTTTCCTTTTCATTTTTTTCTCGGAGTCACCTAGTGCAG”, the binding signal is 28000 fluorescence intensity (a.u.).

For “GCCTGCGCGCCTGCCTAACTTTGTTTTACTTCGATCCATCCGGAGTCACCTAGTGCAG”, the binding signal was 9370 fluorescence intensity (a.u.).

With “CTCCACTGCCTGCCTCCGGCCCTATCCGAGCTGCTTTTCACGGAGTCACCTAGTGCAG”, the binding signal was 8900 fluorescence intensity (a.u.).

As for “CGTCTCCAGAACCGCCTCTCTCCACCACCTCTCCTCGCCTCGGAGTCACCTAGTGCAG”, the binding signal is 8460 fluorescence intensity (a.u.).

Turning to “GCCCATTGCCCCGCGTCGCTTCGTCTCCTCACCCCGCTGCCGGAGTCACCTAGTGCAG”, the binding signal is 10600 fluorescence intensity (a.u.).

In the case of “GTTGCCCTTTTGCTCCTGTTGTCTTCTCCGCTCCTGTCGTCGGAGTCACCTAGTGCAG”, the binding signal was 9800 fluorescence intensity (a.u.).

As for “GCAGCTTCTTTTTCACCCTGGTTTTCGCTTGTACTTCACACGGAGTCACCTAGTGCAG”, the binding signal is 11800 fluorescence intensity (a.u.).

With “AAAAACAAATTCTCACTGACTCTGCTTACCATCTGTTTTTCGGAGTCACCTAGTGCAG”, the binding signal is 11000 fluorescence intensity (a.u.).

For “CTCTTGTCACCATGTTCATCCTTAATTCTGCTGGTTTGGACGGAGTCACCTAGTGCAG”, the binding signal was 8890 fluorescence intensity (a.u.).

As to “GTGGGTACGGTCGGATTATGGGGTTGGGATTTCAATAATACGGAGTCACCTAGTGCAG”, the binding signal was 13700 fluorescence intensity (a.u.).

Take “CAGTGGATCATTCTCCATTCGGGTGTTCTTAACTTATGTACGGAGTCACCTAGTGCAG”: the binding signal was 10600 fluorescence intensity (a.u.).

For the sequence “TGCTCTGTTGTCGCCGTCTTTCCGCTGCTCCTTCCTTGAGCGGAGTCACCTAGTGCAG”, the binding signal was 11800 fluorescence intensity (a.u.).

As for “GGTGTGCATAGATGCGTGGTGTTTGTGACCTCTCGTTGTACGGAGTCACCTAGTGCAG”, the binding signal is 8400 fluorescence intensity (a.u.).

Regarding “TCCCCTGCTGCTTCGCGCAACATATTTACTATCTTTGTACCGGAGTCACCTAGTGCAG”, the binding signal is 12900 fluorescence intensity (a.u.).

Regarding “GGGGTATAGTTAGTTAGTTGTGCTTAGTCCAAATTAGGCCCGGAGTCACCTAGTGCAG”, the binding signal was 10800 fluorescence intensity (a.u.).

Consider “TACCCTCGGTTCTCGCGGATTATTACCGTTTTCTTCCCGCCGGAGTCACCTAGTGCAG”, for which the binding signal is 8530 fluorescence intensity (a.u.).

Turning to “TAATTTATCTATTTGATACCACTTTCTCTGTTTTTCATGTCGGAGTCACCTAGTGCAG”, the binding signal is 8160 fluorescence intensity (a.u.).

In the case of “TTTAATTTTTTTTACAATCGATATTTTTTATCTCAAACAACGGAGTCACCTAGTGCAG”, the binding signal is 9040 fluorescence intensity (a.u.).

On to “CGTGTCGTCCCAATCCGCCACGTCCTCGCCCAAAGCTCCACGGAGTCACCTAGTGCAG”, for which the binding signal is 9420 fluorescence intensity (a.u.).

For the sequence “AACTTTTAACTTTTACATTGCATCAAAATTTTCCTACACACGGAGTCACCTAGTGCAG”, the binding signal was 8690 fluorescence intensity (a.u.).

“CGCTGCCACCATTGCCGAGCCCGCCGCCATCGCCCGAGCCCGGAGTCACCTAGTGCAG”: the binding signal is 9580 fluorescence intensity (a.u.).

With “TGATAATAATTATTTCTTGGTCTGTGGGTTAGGGATGGTTCGGAGTCACCTAGTGCAG”, the binding signal is 9540 fluorescence intensity (a.u.).

For “AGTCACCTCCAACCGCTCGTGTTTTTTTTTTCTTTTTAGGCGGAGTCACCTAGTGCAG”, the binding signal was 8650 fluorescence intensity (a.u.).

“TCTCTCGTATCTGCATCCTGACCGTCAAACAAGATTACACCGGAGTCACCTAGTGCAG”: the binding signal is 8380 fluorescence intensity (a.u.).
